Laboratory results reported in paper PMC1479810.
No constants are given. Whether binding was seen depends on the method and setting. Binding seen in cells or lysates may run through a third protein. Some results given as binding are weak or reduced against the parent protein; the word gives no strength.

Chains of the proteins cited; added tags and fusions are not shown. Residues count along the entry.
UniProt P62139: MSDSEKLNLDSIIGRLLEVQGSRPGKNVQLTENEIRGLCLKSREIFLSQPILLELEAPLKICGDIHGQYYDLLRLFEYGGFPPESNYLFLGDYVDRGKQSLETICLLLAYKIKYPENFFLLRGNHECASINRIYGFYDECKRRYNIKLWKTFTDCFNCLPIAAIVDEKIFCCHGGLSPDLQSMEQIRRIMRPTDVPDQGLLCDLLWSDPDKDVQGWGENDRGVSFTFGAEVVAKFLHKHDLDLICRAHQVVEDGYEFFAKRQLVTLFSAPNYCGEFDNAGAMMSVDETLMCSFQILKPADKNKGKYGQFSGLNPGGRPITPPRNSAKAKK
UniProt P37023, residues 22-503: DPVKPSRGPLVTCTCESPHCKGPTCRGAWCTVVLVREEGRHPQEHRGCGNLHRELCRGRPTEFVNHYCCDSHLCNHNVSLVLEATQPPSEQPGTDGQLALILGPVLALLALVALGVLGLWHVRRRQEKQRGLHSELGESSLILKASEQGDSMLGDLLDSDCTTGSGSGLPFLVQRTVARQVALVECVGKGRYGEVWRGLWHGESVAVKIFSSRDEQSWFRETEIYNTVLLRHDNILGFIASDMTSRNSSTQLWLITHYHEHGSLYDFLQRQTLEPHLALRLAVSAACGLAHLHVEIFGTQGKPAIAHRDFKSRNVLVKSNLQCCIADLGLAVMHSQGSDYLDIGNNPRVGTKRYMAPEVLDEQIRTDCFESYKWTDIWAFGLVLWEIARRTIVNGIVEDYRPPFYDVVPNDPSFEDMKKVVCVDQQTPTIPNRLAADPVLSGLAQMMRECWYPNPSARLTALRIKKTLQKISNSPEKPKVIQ

What was measured:
[1] = molecular target: eGFP-PP1α (293T cells) (rabbit) (UniProt P62139); assay: co-IP; data not shown; ALK1 and eGFP-PP1α ectopically expressed in 293T cells; ALK1 labelled by cross-linking to 125I-TGF-β and co-immunoprecipitated with eGFP-PP1α
[2] = molecular target: wild-type (wt) ALK1/HA (human) (UniProt P37023); assay: co-IP; COS-7 cells transfected with eGFP-PP1α and wtALK1/HA, with or without Flag-Smad7; whole cell lysates immunoprecipitated with HA antibody, immunoblotted with PP1c antiserum

| binding [1] | binding [2] | Substance |
| --- | --- | --- |
| binds |  | ALK1 (ectopically expressed in 293T cells, cross-linked to 125I-TGF-β) (from UniProt P37023 22-503) (receptor) |
|  | binds | eGFP-PP1α (from UniProt P62139 1-330) (enzyme) |
